Experimental data: PubChem BioAssay AID1224830 (NIAID, 2016)
Purpose: 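Genes whose knock-down alters the TNF-alpha reporter response to LPS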 (primary screen). System: human THP-1 monocytic leukaemia cells, TNF dual-luciferase reporter clone, PMA-differentiated to macrophage-like cells. Reagents: siRNA pool against human genes, 50 nM. Time to read-out: LPS for 4 h, given about 3 days after siRNA transfection. Treatment: bacterial LPS (TLR4 ligand), 10 ng/ml. Measured: 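Ratio of firefly to renilla light, scaled to the plate median and expressed as a robust z-score per replicate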. Reading the numbers: TNF reporter robust z-score: higher = stronger TNF reporter response to LPS. Active means: 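Each well counts as active if its z-score is over 2.8 or under -1.5; controls are left without a call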.
This is a random part of about 18,000 deposited reagents. About 2,900 of them (16%) were called active. 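Calls are made per well; low scores hint the gene aids the LPS response, high scores that it dampens it.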 A number with no mark means an inactive call. Repeated entries: four replicate wells of each siRNA pool.

no.	target gene	TNF reporter robust z-score
1	TMEM248 (GeneID 55069)	-1.05
2	TMEM248 (GeneID 55069)	-0.14
3	TMEM248 (GeneID 55069)	-0.34
4	TMEM248 (GeneID 55069)	-0.73
5	GRIK2 (GeneID 2898)	0.8
6	GRIK2 (GeneID 2898)	0.41
7	GRIK2 (GeneID 2898)	-0.13
8	GRIK2 (GeneID 2898)	2.96 (active)
9	RBP7 (GeneID 116362)	-0.22
10	RBP7 (GeneID 116362)	-0.81
11	RBP7 (GeneID 116362)	-0.89
12	RBP7 (GeneID 116362)	-0.07
13	PABPC1L2A (GeneID 340529)	-0.57
14	PABPC1L2A (GeneID 340529)	-0.79
15	PABPC1L2A (GeneID 340529)	-1
16	PABPC1L2A (GeneID 340529)	-0.68
17	ZBTB25 (GeneID 7597)	-0.26
18	ZBTB25 (GeneID 7597)	-0.83
19	ZBTB25 (GeneID 7597)	0.55
20	ZBTB25 (GeneID 7597)	0.45
21	OR52R1 (GeneID 119695)	0.64
22	OR52R1 (GeneID 119695)	0.22
23	OR52R1 (GeneID 119695)	0.29
24	OR52R1 (GeneID 119695)	0.41
25	TMEM119 (GeneID 338773)	-0.67
26	TMEM119 (GeneID 338773)	0.23
27	TMEM119 (GeneID 338773)	-0.09
28	TMEM119 (GeneID 338773)	-0.86

Records listed so far whose target name starts with T or t (8):
target gene	TNF reporter robust z-score
TMEM248 (GeneID 55069)	-1.05
TMEM248 (GeneID 55069)	-0.14
TMEM248 (GeneID 55069)	-0.34
TMEM248 (GeneID 55069)	-0.73
TMEM119 (GeneID 338773)	-0.67
TMEM119 (GeneID 338773)	0.23
TMEM119 (GeneID 338773)	-0.09
TMEM119 (GeneID 338773)	-0.86

Further results follow.
no.	target gene	TNF reporter robust z-score
29	DNTTIP2 (GeneID 30836)	-0.04
30	DNTTIP2 (GeneID 30836)	-0.84
31	DNTTIP2 (GeneID 30836)	2
32	DNTTIP2 (GeneID 30836)	2.23
33	CA6 (GeneID 765)	-1.53 (active)
34	CA6 (GeneID 765)	0.53
35	CA6 (GeneID 765)	0.29
36	CA6 (GeneID 765)	0.72
37	IDI2 (GeneID 91734)	-1.38
38	IDI2 (GeneID 91734)	-0.59
39	IDI2 (GeneID 91734)	-1.32
40	IDI2 (GeneID 91734)	0.57
41	NET1 (GeneID 10276)	-0.64
42	NET1 (GeneID 10276)	-0.59
43	NET1 (GeneID 10276)	-0.39
44	NET1 (GeneID 10276)	0.13
45	HOXD12 (GeneID 3238)	0.11
46	HOXD12 (GeneID 3238)	0.01
47	HOXD12 (GeneID 3238)	-0.88
48	HOXD12 (GeneID 3238)	-0.79
49	STK3 (GeneID 6788)	0.59
50	STK3 (GeneID 6788)	0.12
51	STK3 (GeneID 6788)	-0.61
52	TXN (GeneID 7295)	0.98
53	TXN (GeneID 7295)	0.02
54	TXN (GeneID 7295)	-0.33
55	TXN (GeneID 7295)	0.34
56	PAGE1 (GeneID 8712)	-0.89
57	PAGE1 (GeneID 8712)	-0.67
58	PAGE1 (GeneID 8712)	0
59	PAGE1 (GeneID 8712)	0.31
60	ABCE1 (GeneID 6059)	0.24
61	ABCE1 (GeneID 6059)	-0.23
62	ABCE1 (GeneID 6059)	0.63
63	ABCE1 (GeneID 6059)	0.61
64	OR9A2 (GeneID 135924)	0.26
65	OR9A2 (GeneID 135924)	0.51
66	OR9A2 (GeneID 135924)	0.1
67	OR9A2 (GeneID 135924)	3.54 (active)
68	TRAPPC5 (GeneID 126003)	-1.02
69	TRAPPC5 (GeneID 126003)	-0.3
70	TRAPPC5 (GeneID 126003)	-1.27
71	TRAPPC5 (GeneID 126003)	-0.28
72	RPP38-DT (GeneID 221060)	2.29
73	RPP38-DT (GeneID 221060)	1.96
74	RPP38-DT (GeneID 221060)	0.91
75	RPP38-DT (GeneID 221060)	2.12
